Test results taken from publication PMC9481461.
Results are given in words; binding and its absence hold for the method and conditions named. Binding seen in cells or lysates may run through a third protein. Some entries that bind do so weakly or less than the wild type. Each block holds one substance with its values, some of them ahead of it.

Protein sequences, listed by entry. Tags and fused reporters are not part of them. Lines headed by an entry give the natural chain unless they say otherwise; changes in a name come on top.
UniProt Q7L523: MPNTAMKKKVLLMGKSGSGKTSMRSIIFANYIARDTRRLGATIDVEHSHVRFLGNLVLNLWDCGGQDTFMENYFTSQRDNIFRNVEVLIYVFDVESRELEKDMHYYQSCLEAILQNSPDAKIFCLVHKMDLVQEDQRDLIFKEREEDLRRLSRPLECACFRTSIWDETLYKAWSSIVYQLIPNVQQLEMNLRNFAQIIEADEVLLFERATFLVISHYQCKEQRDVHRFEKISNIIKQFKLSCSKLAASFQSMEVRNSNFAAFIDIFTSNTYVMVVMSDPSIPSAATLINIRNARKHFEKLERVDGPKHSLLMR
UniProt Q9HB90: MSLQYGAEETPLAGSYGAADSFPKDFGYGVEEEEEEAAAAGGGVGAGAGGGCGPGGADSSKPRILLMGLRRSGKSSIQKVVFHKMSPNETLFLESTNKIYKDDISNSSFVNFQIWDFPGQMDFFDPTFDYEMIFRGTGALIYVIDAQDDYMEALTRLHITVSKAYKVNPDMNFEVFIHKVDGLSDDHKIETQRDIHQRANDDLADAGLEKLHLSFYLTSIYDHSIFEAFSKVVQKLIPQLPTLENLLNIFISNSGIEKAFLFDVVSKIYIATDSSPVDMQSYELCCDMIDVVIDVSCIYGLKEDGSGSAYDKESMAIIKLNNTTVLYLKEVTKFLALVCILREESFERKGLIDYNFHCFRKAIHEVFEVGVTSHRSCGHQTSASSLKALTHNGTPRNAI
UniProt Q9NQL2: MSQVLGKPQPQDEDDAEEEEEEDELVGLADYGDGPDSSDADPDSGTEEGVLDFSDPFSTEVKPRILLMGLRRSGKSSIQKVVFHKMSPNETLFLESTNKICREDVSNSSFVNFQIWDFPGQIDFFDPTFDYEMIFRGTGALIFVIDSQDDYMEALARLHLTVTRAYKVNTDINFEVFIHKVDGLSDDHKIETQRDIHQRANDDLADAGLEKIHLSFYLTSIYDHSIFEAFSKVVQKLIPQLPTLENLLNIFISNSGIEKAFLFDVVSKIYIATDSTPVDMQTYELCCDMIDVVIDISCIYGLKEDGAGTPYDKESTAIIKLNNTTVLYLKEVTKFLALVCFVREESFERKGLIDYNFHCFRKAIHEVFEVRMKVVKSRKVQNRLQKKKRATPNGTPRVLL
UniProt Q6IAA8: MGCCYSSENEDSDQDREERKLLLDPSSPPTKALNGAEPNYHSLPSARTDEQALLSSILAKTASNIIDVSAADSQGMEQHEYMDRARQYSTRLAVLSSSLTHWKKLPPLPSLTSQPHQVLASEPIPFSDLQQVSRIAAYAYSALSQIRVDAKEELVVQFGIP
UniProt Q9P2J5: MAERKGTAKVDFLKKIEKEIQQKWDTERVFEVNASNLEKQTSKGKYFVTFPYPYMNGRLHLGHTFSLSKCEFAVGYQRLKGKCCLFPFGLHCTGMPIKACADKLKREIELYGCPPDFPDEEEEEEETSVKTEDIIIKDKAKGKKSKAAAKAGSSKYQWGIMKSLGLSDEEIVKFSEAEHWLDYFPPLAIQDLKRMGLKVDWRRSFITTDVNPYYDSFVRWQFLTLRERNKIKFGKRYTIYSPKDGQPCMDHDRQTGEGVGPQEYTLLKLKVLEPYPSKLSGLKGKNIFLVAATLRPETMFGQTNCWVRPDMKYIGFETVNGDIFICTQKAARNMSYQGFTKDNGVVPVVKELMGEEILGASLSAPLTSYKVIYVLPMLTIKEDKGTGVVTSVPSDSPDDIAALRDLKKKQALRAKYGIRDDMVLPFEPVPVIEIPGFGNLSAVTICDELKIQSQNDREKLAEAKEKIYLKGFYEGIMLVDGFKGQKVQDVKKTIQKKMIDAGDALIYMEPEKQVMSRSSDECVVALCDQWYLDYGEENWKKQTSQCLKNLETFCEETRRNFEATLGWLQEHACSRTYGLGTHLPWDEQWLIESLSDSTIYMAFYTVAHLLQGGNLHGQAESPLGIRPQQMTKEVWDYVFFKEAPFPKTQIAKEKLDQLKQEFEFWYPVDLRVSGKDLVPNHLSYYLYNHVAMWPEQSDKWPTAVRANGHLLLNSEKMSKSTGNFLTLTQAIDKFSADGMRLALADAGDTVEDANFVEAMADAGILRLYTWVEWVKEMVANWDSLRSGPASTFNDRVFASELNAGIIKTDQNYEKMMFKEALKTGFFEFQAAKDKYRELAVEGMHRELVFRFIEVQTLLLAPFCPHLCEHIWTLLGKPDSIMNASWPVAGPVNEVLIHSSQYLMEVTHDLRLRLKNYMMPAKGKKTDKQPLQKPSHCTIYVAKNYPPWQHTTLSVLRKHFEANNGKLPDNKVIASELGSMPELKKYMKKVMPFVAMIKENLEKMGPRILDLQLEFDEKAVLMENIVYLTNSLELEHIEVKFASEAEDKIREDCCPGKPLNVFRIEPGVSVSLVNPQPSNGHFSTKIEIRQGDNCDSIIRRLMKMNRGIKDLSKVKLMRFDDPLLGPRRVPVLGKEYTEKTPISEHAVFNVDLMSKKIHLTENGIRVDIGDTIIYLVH
UniProt P19532: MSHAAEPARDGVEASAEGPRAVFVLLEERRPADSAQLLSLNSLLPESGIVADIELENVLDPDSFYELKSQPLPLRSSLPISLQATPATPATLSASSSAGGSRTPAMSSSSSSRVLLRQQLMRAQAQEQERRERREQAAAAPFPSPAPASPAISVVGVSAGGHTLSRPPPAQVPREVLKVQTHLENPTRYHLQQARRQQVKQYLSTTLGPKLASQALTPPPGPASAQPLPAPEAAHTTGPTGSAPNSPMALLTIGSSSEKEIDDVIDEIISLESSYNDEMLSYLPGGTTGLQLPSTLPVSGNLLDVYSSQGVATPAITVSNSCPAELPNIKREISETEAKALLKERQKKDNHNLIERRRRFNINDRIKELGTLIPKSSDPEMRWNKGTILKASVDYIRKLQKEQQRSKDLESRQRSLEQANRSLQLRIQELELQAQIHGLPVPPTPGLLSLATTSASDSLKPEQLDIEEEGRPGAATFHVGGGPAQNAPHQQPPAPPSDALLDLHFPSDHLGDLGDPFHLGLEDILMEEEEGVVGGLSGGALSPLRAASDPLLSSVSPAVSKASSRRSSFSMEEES
UniProt Q8N122: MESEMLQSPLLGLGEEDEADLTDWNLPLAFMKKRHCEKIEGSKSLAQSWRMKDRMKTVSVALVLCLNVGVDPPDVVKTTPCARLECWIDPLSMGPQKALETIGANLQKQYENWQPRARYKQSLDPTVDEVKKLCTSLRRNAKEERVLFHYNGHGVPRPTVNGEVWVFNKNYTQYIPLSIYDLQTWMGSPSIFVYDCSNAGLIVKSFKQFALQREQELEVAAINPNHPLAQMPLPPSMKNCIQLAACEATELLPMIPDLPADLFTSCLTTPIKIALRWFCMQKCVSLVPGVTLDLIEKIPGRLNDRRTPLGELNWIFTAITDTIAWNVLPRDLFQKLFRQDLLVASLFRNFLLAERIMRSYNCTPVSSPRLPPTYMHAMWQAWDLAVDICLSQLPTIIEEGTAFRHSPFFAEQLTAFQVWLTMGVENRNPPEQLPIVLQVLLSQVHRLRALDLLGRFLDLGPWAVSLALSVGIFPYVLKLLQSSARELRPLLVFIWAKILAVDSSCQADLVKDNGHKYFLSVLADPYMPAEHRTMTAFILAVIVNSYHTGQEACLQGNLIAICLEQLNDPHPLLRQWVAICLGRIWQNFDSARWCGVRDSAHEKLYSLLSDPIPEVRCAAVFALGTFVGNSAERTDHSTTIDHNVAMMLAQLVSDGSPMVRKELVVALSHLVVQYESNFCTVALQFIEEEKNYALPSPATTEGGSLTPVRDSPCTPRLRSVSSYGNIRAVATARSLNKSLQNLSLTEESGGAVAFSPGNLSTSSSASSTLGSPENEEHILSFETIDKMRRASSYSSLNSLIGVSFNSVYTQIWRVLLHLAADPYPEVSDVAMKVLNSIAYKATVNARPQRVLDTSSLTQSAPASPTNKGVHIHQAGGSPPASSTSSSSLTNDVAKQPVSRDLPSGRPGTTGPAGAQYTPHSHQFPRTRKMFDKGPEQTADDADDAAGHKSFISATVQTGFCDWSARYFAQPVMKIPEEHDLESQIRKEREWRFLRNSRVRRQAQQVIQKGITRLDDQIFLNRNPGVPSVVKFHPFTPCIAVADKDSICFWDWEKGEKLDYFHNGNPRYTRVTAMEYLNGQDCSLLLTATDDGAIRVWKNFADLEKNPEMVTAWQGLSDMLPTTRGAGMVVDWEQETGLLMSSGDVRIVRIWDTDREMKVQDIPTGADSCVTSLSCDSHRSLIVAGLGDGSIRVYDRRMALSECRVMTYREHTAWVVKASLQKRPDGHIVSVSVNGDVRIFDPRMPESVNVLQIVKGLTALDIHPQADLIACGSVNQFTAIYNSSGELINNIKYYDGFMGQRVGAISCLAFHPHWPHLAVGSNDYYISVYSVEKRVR

Assays:
FLAG-tagged RagA (human) = FLAG-tagged RagA (human) (UniProt Q7L523); test: co-IP; HEK293FT qKO cells transiently expressing FLAG-RagA/C, FLAG-RagA/D or FLAG-Luc; endogenous partners detected by immunoblot; lysis in 50 mM Tris pH 7.5, 0.3% CHAPS, 150 mM NaCl; anti-FLAG M2 affinity gel 3 h at 4 °C
FLAG-tagged RagC (human) = FLAG-tagged RagC (human) (UniProt Q9HB90); test: as above
FLAG-tagged RagD (human) [1] = biological target: FLAG-tagged RagD (human) (UniProt Q9NQL2); test: as above
FLAG-tagged RagD (human) [2] = biological target: FLAG-tagged RagD (human) (UniProt Q9NQL2); test: co-IP; HEK293FT qKO cells transiently expressing HA-RagA with FLAG-RagC, FLAG-RagD or FLAG-Luc; lysis in 50 mM Tris pH 7.5, 0.3% CHAPS, 150 mM NaCl; anti-FLAG M2 affinity gel 3 h at 4 °C; immunoblot
FLAG-tagged p18/LAMTOR1 = FLAG-tagged p18/LAMTOR1 (UniProt Q6IAA8); test: co-IP; HEK293FT qKO cells transiently expressing FLAG-p18 or FLAG-Luc, and HA-RagA with HA-RagC, HA-RagD, HA-RagDCD or HA-RagC mutants; lysis in 50 mM Tris pH 7.5, 0.3% CHAPS, 150 mM NaCl; anti-FLAG M2 affinity gel 3 h at 4 °C; immunoblot

Substance: HA-tagged RagA (from UniProt Q7L523 1-313)
binding (FLAG-tagged RagD (human) [2]): binds

Substance: leucyl-tRNA synthetase (LARS) (from UniProt Q9P2J5 1-1176)
binding (FLAG-tagged RagD (human) [1]): binds

Results, then the substance that gave them:

binding (FLAG-tagged RagA (human)): binds | binding (FLAG-tagged RagC (human)): binds | binding (FLAG-tagged RagD (human) [1]): binds
Substance: transcription factor E3 (TFE3) (from UniProt P19532 1-575)

binding (FLAG-tagged RagD (human) [1]): binds
Substance: Raptor (from UniProt Q8N122 1-1335)

binding (FLAG-tagged p18/LAMTOR1): binds
Substance: HA-tagged RagD (from UniProt Q9NQL2-1 1-400)
